This passage reports binding results from article PMC8106682.

Chains of the proteins cited; added tags and fusions are not shown.
UniProt Q15910: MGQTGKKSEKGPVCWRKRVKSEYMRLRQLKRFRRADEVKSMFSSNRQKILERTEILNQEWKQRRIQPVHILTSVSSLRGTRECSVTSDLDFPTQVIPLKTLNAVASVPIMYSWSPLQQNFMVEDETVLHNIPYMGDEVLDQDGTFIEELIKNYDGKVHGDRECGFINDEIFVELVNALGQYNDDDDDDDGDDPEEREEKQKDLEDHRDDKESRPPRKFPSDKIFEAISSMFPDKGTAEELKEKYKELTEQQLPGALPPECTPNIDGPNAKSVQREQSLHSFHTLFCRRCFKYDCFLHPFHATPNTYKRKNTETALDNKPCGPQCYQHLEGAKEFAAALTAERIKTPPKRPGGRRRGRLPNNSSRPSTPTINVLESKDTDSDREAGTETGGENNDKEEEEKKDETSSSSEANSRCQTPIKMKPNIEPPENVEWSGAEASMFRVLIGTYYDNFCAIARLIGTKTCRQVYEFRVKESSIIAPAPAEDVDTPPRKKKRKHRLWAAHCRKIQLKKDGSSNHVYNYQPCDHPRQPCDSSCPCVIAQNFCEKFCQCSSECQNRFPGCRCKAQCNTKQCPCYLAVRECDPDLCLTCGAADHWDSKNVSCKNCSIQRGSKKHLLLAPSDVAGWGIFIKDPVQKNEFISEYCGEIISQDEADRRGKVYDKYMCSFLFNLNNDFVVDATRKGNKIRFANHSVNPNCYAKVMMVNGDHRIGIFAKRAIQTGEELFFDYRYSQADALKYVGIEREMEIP
UniProt Q14258: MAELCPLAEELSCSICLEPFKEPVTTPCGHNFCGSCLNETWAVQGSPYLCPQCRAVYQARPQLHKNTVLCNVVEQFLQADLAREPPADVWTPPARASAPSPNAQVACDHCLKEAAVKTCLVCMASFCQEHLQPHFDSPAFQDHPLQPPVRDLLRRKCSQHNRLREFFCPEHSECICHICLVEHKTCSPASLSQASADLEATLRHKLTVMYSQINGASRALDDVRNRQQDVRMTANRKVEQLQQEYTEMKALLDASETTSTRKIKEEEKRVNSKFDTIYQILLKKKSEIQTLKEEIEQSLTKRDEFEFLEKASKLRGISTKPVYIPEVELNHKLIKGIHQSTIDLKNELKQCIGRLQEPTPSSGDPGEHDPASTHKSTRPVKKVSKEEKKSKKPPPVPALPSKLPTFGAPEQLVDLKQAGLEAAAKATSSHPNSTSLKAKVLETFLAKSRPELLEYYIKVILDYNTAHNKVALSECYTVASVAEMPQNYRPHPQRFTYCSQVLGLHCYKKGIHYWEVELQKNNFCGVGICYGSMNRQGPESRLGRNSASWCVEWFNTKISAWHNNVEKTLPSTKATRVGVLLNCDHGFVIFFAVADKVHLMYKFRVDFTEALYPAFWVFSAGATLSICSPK

These are yes or no findings as the source states them, for the method shown. In cells and extracts the contact can be indirect. Some binding calls cover weakened binding; strength is not graded here.

The target in one assay is Flag-EZH2 (UniProt Q15910). Briefly: co-IP; HEK293T cells co-transfected with Flag-EZH2 and HA-TRIM25; NP-40 lysate, anti-Flag or anti-HA antibodies, protein A/G beads, immunoblot.
The target in assay [1] is Enhancer of zeste 2 polycomb repressive complex 2 subunit (EZH2), endogenous (human (endogenous in SW480)) (UniProt Q15910). The experiment in a line: co-IP; endogenous proteins in SW480 lysate (NP-40 lysis buffer, 4°C); anti-TRIM25 or anti-EZH2 antibodies overnight, protein A/G beads, immunoblot; for TRAF6: anti-EZH2 IP (IgG control) from cells transfected with siNC or siTRIM25.

Take HA-TRIM25 (from UniProt Q14258 1-630): in the assay with Flag-EZH2, the binding entry is given as “binds”.
Regarding “Tripartite motif containing 25 (TRIM25), endogenous (from UniProt Q14258 1-630)”, in assay [1], the binding result is reported as “binds”.
